This test addresses BRD9 (Homo sapiens, UniProt Q9H8M2). Description: HiBiT BRD9 degradation assay in 293T.166 (BRD9-HiBiT) cells. To be noted: read-out: HiBiT-Degradation 293T.166 BRD9 2.0 hours (DC50), Table 2, 293T.166 cells, class symbols. The procedure:
Selected compounds were tested in a BRD9 degradation assay using the HiBit Method.
Dulbecco's modified Eagle medium (DMEM) without phenol red and fetal bovine serum (FBS) were purchased from Gibco (Grand Island, N.Y., USA). Nano-Glo® HiBiT Lytic Assay System was purchased from Promega (Madison, Wis., USA). 293T.166 (BRD9-HiBiT) cell line, endogenously expressing BRD9 with HiBiT fusion tag via CRISPR and ectopically expressing LgBiT tag, was purchased from Promega (Madison, Wis., USA). 293T.167 (BRD7-HiBiT) cell line, endogenously expressing BRD7 with HiBiT fusion tag via CRISPR and ectopically expressing LgBiT tag, was purchased from Promega (Madison, Wis., USA). 293T.92 (BRD4-HiBiT) cell line, endogenously expressing BRD4 with HiBiT fusion tag via CRISPR and ectopically expressing LgBiT tag, was generated in-house. Cell culture flasks and 384-well microplates were acquired from VWR (Radnor, Pa., USA).
BRD9 degradation was determined based on quantification of luminescent signal using Nano-Glo® HiBiT Lytic Assay kit. Test compounds were added to the 384-well plate from a top concentration of 10 μM with 11 points, half log titration in duplicates. […] BRD7 and BRD4 degradation was similarly determined with 293T.167 cells and 293T.92 cells, respectively. […] Luminescence was acquired on EnVision™ Multilabel Reader (PerkinElmer, Santa Clara, Calif., USA).
(HiBiT is a short tag that completes a luciferase, so light tracks the accessible tagged protein.)

Amino acid sequences for entries named in this document (tags omitted).
UniProt Q9H8M2, whole entry: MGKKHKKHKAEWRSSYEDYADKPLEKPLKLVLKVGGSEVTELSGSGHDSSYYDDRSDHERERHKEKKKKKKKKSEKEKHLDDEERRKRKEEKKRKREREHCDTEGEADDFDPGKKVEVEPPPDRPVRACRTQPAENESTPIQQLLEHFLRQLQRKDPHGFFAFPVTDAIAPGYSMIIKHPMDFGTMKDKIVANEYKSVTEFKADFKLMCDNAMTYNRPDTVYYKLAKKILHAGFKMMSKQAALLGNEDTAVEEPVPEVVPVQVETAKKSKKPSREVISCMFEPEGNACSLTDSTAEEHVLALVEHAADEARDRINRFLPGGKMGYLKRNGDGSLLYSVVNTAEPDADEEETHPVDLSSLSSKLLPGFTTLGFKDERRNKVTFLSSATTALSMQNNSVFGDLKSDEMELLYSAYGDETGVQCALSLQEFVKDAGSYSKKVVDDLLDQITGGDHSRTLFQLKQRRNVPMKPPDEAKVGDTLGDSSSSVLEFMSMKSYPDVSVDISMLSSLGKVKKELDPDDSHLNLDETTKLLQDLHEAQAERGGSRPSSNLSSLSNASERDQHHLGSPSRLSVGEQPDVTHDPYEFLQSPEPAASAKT

Molecules are shown by their SMILES. Structures were worked out from names or drawings and are uncertain.

As usually defined, the DC50 is the midpoint of the concentration-degradation curve. As for `Cc1c(-c2ccc(C(=O)N3CCC(N4CCN(c5ccc(NC6CCC(=O)NC6=O)cc5F)CC4)C(F)(F)C3)c(OC(F)(F)F)c2)cn(C)c(=O)c1C` (single isomer, unassigned), the DC50 was below 100 nM.

The values are drawn from US11691972B2, “Compounds for targeted degradation of BRD9” (C4 Therapeutics, Inc., priority 2020, dated 2023).
